Test results as given in patent US20210005278A1, “SYSTEMS AND METHODS FOR PREDICTIVE NETWORK MODELING FOR COMPUTATIONAL SYSTEMS, BIOLOGY AND DRUG TARGET DISCOVERY” (ARIZONA BOARD OF REGENTS ON BEHALF OF THE UNIVERSITY OF …, priority 2018, published 2021).
“Also recorded” adds a separate entry of the source.

How the values were obtained:
[1] = system: SGBS cells; assay: Adipogenic differentiation assay (Oil Red O) in SGBS cells; format: cell-based, human; conditions: inhibitor added at day 0 of differentiation, 10 nM-10 uM
Protocol: For adipogenic differentiation SGBS cells were grown to confluence and subjected to a two-step differentiation process. […] Afterwards, cells were exposed to DMEM/F12 supplemented with 0.01 mg/mL of transferrin, […] of insulin, 100 nM cortisol, and 0.2 nM 3,3′,5-Triiodo-L-thyronine for additional 12 days. HMCL-7304 cells were differentiated in presence of SKMC differentiation medium (PromoCell) for 4-5 days before glucose uptake was performed. For quantification of the effect on adipogenic differentiation, chemical inhibitors for HMGCR (atorvastatin), FDPS (alendronate), and SQLE (terbinafine) were added at day 0 of differentiation at different concentrations (10 nM, 100 nM, 1 uM, 10 uM.). Differentiation quantification was performed with Oil Red 0. Differentiated SGBS cells were fixed with 10% formalin for 10 minutes at room temperature. After washing with 60% isopropanol, samples were incubated in Oil Red 0 (Sigma-Aldrich) for 10 minutes at room temperature. Oil Red 0 was eluted with 100% isopropanol for 10 minutes. The solution was then transferred into a 96-well plate and absorbance measured at 500nm.

[2] = system: human adipocytes (differentiated SGBS cells); assay: Insulin mediated glucose uptake assay in mature human adipocytes (differentiated SGBS); format: cell-based; conditions: 24 hours pretreatment 10 nM-10 uM, 100 nM insulin stimulation
Protocol: (§1) For adipogenic differentiation SGBS cells were grown to confluence and subjected to a two-step differentiation process. […] Afterwards, cells were exposed to DMEM/F12 supplemented with 0.01 mg/mL of transferrin, […] of insulin, 100 nM cortisol, and 0.2 nM 3,3′,5-Triiodo-L-thyronine for additional 12 days. HMCL-7304 cells were differentiated in presence of SKMC differentiation medium (PromoCell) for 4-5 days before glucose uptake was performed. Differentiated SGBS or HMCL-7304 cells were pretreated for 24 hours with different concentrations (10 nM, 100 nM, 1 uM, 10 uM) of the chemical inhibitors for HMGCR (atorvastatin), FDPS (alendronate), and SQLE (terbinafine). After the preincubation, the cells were starved for 2 hours prior to 30 minutes of 100 nM insulin stimulation at 37 degrees. […] The cells were then washed with PBS, harvested in 300 uL of M-PER lysis buffer (ThermoFisher), and then added to scintillation vials containing 4.75 mL of scintillation fluid (Perk Elmer). Radioactive counts were determined with a scintillation counter (Model ID: Beckman LS6500). Excess samples were subjected to BCA assay for protein quantification and normalization of radioactive counts. All samples were represented as fold change compared to the unstimulated (no insulin) condition.

[3] = system: human SKMCs (HMCL-7304); assay: Insulin mediated glucose uptake assay in mature human SKMCs (HMCL-7304); format: cell-based; conditions: human SKMCs (HMCL-7304 myotubes); 24 hours pretreatment 10 nM-10 uM; 100 nM insulin stimulation
Protocol: as §1

Row | Structure (SMILES) | differentiation efficiency (adipogenesis, Oil Red O absorbance at 500 nm) [1] | insulin mediated glucose uptake [2] | insulin mediated glucose uptake [3]
1 | NCCCC(O)(P(=O)(O)O)P(=O)(O)O [alendronate] | only HMGCR inhibition demonstrates a detectable decrease | decrease insulin mediated glucose uptake | 
2 | CC(C)c1c(C(=O)Nc2ccccc2)c(-c2ccccc2)c(-c2ccc(F)cc2)n1CC[C@@H](O)C[C@@H](O)CC(=O)O [atorvastatin] | detectable decrease | decrease insulin mediated glucose uptake | inhibits; also recorded: affected
